Some of the results follow. The calls rarely recur for the same compound in another form.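 In K562 cells expressing nanoluciferase-fused kinases, luminescence was recorded at 4 h intervals between 2 and 18 h, normalized as percent of control with DMSO at 100% and a positive control at 0%. A significant (2 sigma) signal drop marks a time point as decreased. The authors' rule for a hit is not shown and takes in more than the number of time points.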
Target: ARAF (UniProt P10398)
Experiment: number of time points (of 5) at which kinase-Nluc abundance scored as decreased, DMSO-normalised (count); higher = more persistent destabilization
Settings: K562; 2-18 h

By UniProt entry, the sequences of proteins in these tests, tags left out. Where a name states a change or a piece, a line headed by the entry shows the natural chain unless it says otherwise.
UniProt P10398: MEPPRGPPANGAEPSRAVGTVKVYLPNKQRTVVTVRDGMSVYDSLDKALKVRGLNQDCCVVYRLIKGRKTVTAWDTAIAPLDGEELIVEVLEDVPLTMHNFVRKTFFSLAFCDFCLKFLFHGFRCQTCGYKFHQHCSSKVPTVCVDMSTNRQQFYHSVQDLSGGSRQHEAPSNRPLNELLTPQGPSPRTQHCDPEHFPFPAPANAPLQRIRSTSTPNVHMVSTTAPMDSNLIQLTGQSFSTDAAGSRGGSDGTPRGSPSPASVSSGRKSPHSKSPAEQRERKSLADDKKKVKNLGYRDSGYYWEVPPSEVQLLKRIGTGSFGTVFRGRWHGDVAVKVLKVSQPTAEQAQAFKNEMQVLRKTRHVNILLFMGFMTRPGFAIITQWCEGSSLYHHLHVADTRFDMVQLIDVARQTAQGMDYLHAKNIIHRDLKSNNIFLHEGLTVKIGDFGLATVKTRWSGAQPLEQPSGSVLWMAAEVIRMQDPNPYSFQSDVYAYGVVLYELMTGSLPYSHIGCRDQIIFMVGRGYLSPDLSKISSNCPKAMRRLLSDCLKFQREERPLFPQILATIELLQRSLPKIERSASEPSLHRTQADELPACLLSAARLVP

SMILES	number of time points
NCc1ccc(Nc2ncc(F)c(Nc3ccccc3)n2)cc1 (10 µM)	0
C=C(C)C(=O)Nc1cccc(-c2ncnc3[nH]cc(C(=O)OCC)c23)c1 (10 µM)	0
CCOc1cc(C(=O)N2CCC(N3CCN(C)CC3)CC2)ccc1Nc1ncc2c(n1)N(C1CCCC1)c1ccccc1C(=O)N2C (10 µM)	0
CCOc1ccc(C(=O)Nc2ncc([N+](=O)[O-])s2)cc1 (10 µM)	0
CNC(=O)Nc1ccc(-c2cc(-c3ccnc(Nc4ccc(C)c(S(=O)(=O)N(C)C)c4)n3)ccn2)cc1 [hSMG-1 inhibitor 11e] (2.5 µM)	0
CNC(=O)c1ccc(-c2cnc3cnc(C(=O)N(C)c4ccc(Cl)cc4)cn23)cc1 (2.5 µM)	0
COc1cccc(-n2c(=O)[nH]c3cc(Cl)n(-c4ccc(-c5cccc(OC)c5O)cc4)c3c2=O)c1 (2.5 µM)	0
O=C(Nc1cccnc1)c1cc(C(=O)c2c(F)cccc2Br)c[nH]1 (10 µM)	0
CN(CC(=O)N(Cc1ccc(C2CCCCC2)cc1)c1ccc(C(=O)O)cc1)S(=O)(=O)c1c(F)c(F)c(F)c(F)c1F (2.5 µM)	0
COc1c(NC(=O)C(=O)c2ccc(OCCN3CCOCC3)c3ccccc23)cc(C(C)(C)C)cc1NS(C)(=O)=O (2.5 µM)	0
CC(C)CC1(O)CCN(C(=O)c2ccc(NS(=O)(=O)c3cccc4nccnc34)cc2)CC1 (10 µM)	0
O=C(/C=C/c1ccc(O)c(O)c1)c1ccc(O[C@@H]2O[C@H](CO)[C@@H](O)[C@H](O)[C@H]2O)c(O)c1O [Marein] (10 µM)	0

Fetched one by one from the entries so far:
SMILES	number of time points
C=C(C)C(=O)Nc1cccc(-c2ncnc3[nH]cc(C(=O)OCC)c23)c1 (10 µM)	0
CNC(=O)c1ccc(-c2cnc3cnc(C(=O)N(C)c4ccc(Cl)cc4)cn23)cc1 (2.5 µM)	0
